Data as given in PubChem BioAssay AID2685 (National Center for Advancing Translational Sciences (NCATS), 2010).
This is one part of the list. These are further read-outs of the screen, such as a control signal, another cell line or another target. No call is given for them. Compounds called inactive in the main read-out are mostly missing here. Potencies come from curve fits of mixed quality, noted in brackets.

Assay: qHTS Assay for Lipid Storage Modulators in Drosophila S3 Cells;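 on cell number change: cells counted by Cell Tracker Red CMTPX staining in the red channel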
Settings: BODIPY lipid droplet fluorescence, 18-24 h; for cell number change: measured here: cell count max response, cells fed with added oleic acid
Summary of the method: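 Drosophila S3 cells got compounds at several concentrations plus oleic acid (400 uM solution). Laser-scanning cytometry with 488 nm excitation read lipid droplets at 500-530 nm and cells at 575-640 nm. Percent activity was relative to 20 uM Triacsin C.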

[1] = measured here: cell number channel AC50, cells fed with added oleic acid
[2] = measured here: lipid fluorescence (Fed channel) AC50, cells fed with added oleic acid

SMILES | cell number change [%] | AC50 [1] | AC50 [2]
CCOC(=S)SCc1cn2ccccc2n1 | 31.7 | 29.1 µM [rising, single point] | 0.651 µM [rising, full curve, poor fit]
O=C1CCCC(=O)C1Sc1ccc(Cl)cc1 | 13.9 |  | 
CN1CCCN(c2ncnc3scc(-c4ccc(F)cc4)c23)CC1 | -1.58 |  | 
COc1ccc(NC(=O)C2CCCN(S(=O)(=O)c3cccnc3)C2)cc1OC (configuration not stated) | -1.4 |  | 29.1 µM [rising, single point]
CCOC(=O)C1=C(O)/C(=C\c2cccc(OC)c2)N=C1C | -0.287 |  | 32.6 µM [falling, single point]
CC(=O)Nc1cccc(NC(=O)CSc2nc(C)c(C)c(C)c2C#N)c1 | 5.61 |  | 0.517 µM [rising, full curve]
Cc1ccc(NC(=O)CN2CCc3ccccc3C2)cc1C | 16 |  | 29.1 µM [rising, single point]
COc1cc(-c2nnc3n(CCc4ccccc4)c(=O)c4ccccc4n23)cc(OC)c1OC | 38.7 | 8.2 µM [rising, partial curve] | 
COC(C(=O)Nc1ccnn1C1CCN(C(=O)c2ccc(C=O)cc2)CC1)c1ccccc1 (configuration not stated) | -7.25 | 6.51 µM [falling, partial curve, poor fit] | 
Cc1ccc(S(=O)(=O)c2nc(-c3ccccc3)oc2NCCN2CCOCC2)cc1 |  | 0.651 µM [rising, single point] | 0.231 µM [rising, full curve, poor fit]
Cc1ccc2c(c1)N(C(=O)CCC(=O)N1CCOCC1)CC(C)O2 (configuration not stated) | -7.49 |  | 
CCOC(=O)c1c(-c2ccc(C)o2)csc1NC(=S)NC(=O)c1ccccc1Br |  | 0.0517 µM [rising, full curve, poor fit] | 
CN(CC(=O)Nc1ccc(N2CCOCC2)cc1)C(=O)CSc1ccccc1F | -3.51 |  | 29.1 µM [falling, single point]
CC(C)NC(=S)N=Nc1c(O)[nH]c2ccc([N+](=O)[O-])cc12 | -6.24 |  | 1.16 µM [falling, single point]
COc1ccccc1CN(C)C(=O)c1cc(-c2cc(OC)c(OC)c(OC)c2)nc2ccccc12 | 9.13 |  | 
Nc1nonc1C(=O)N/N=C/c1cccc([N+](=O)[O-])c1 | -23.1 |  | 
COc1ccc(CSCCNC(=S)Nc2ccccc2)cc1Cl | 31.1 |  | 
CN1CCN(C(=O)C2=C[C@H](C(C)(C)C)C[C@H](OCCCCO)O2)CC1 | -8.85 |  | 4.61 µM [falling, full curve]
N#CCCN(CCC#N)S(=O)(=O)c1ccc(C(=O)Nc2nc(-c3ccccc3)c(C(=O)c3ccccc3)s2)cc1 | 20.8 |  | 18.4 µM [rising, single point]
Fc1cccc(F)c1CSc1nc2ccccc2[nH]1 | 12 |  | 29.1 µM [falling, single point]
O=[N+]([O-])c1ccn(-c2nc(-c3cccs3)cc(C(F)(F)F)n2)n1 | 16.6 |  | 

Rewritten with each value named: part of the list above
CCOC(=S)SCc1cn2ccccc2n1
  cell number change [%]: 31.7; AC50 [1]: 29.1 µM [rising, single point]; AC50 [2]: 0.651 µM [rising, full curve, poor fit]
CCOC(=O)c1c(-c2ccc(C)o2)csc1NC(=S)NC(=O)c1ccccc1Br
  AC50 [1]: 0.0517 µM [rising, full curve, poor fit]

Later entries.

SMILES | cell number change [%] | AC50 [1] | AC50 [2]
Cc1cc(Cl)ccc1OCC(=O)N/N=C/c1ccncc1 | 7.66 |  | 0.58 µM [falling, single point]
O=C1C=C(c2ccc(O)cc2)C[C@@H](c2ccc(Cl)cc2)C1 | -73.5 | 23.1 µM [falling, single point] | 0.651 µM [rising, single point]
O=C(Oc1ccc2c(=O)c(Oc3ccc4ccccc4c3)coc2c1)c1cccnc1 | -20.8 |  | 4.11 µM [falling, full curve]
CC(C)N(Cc1ccccc1)C(=O)CC(=O)N(Cc1ccccc1)C(C)C |  |  | 29.1 µM [rising, single point]
CN1c2cccc3cccc(c23)N(C)C1c1cccs1 | 156 | 20.6 µM [rising, partial curve, poor fit] | 
COc1ccc(CNC(=O)Cc2nn(C)c(=O)c3ccccc23)cc1 | -28.6 |  | 10.3 µM [falling, partial curve]
CCOn1c(=O)c[n+]([O-])c2ccccc21 |  | 0.146 µM [falling, full curve] | 3.66 µM [falling, partial curve]
Nc1nc(Cl)cc(Oc2ccccc2F)n1 | 8.98 |  | 0.259 µM [falling, full curve, poor fit]
Cc1cc(NC(=O)c2ccccc2F)n(C(C)(C)C)n1 | 30.8 | 0.184 µM [rising, partial curve, poor fit] | 
CCS(=O)(=O)N1CCC(NC(C)=O)(c2ccccc2)CC1 | -11.4 |  | 
CCN(C(=O)Cn1c(=O)oc2ccccc21)C1CCS(=O)(=O)C1 (configuration not stated) | -109 | 8.2 µM [falling, partial curve] | 
CCNC(=O)C1CCCN1S(=O)(=O)c1ccc(OC)cc1 (configuration not stated) | -59.2 | 29.1 µM [falling, single point] | 29.1 µM [falling, single point]
O=C(COC(=O)CN1C(=O)c2ccccc2C1=O)NC1CCCC1 | 18.1 |  | 
CCCc1cc(C(N)=S)ccn1 | 4.52 |  | 
NC(=O)CSc1nc(O)cc(=O)n1-c1ccccc1 | -175 | 25.9 µM [falling, single point] | 29.1 µM [falling, single point]
COc1ccc(OC)c(N(CC(N)=O)S(=O)(=O)c2ccc(OC)c(OC)c2)c1 | -35.2 | 0.651 µM [falling, full curve] | 1.84 µM [falling, full curve]
CC1CCCN(S(=O)(=O)c2ccc3c(c2)C(C)(C)C(=O)N3C)C1 (configuration not stated) | 9.22 |  | 2.59 µM [rising, partial curve]
C=C(C)n1c(=O)n(Cc2ccccc2C)c2ccccc21 | -20.6 | 1.16 µM [falling, full curve, poor fit] | 
COc1cccc(CNC(=O)c2ccc(C3SCCS3)cc2)c1 | -16.5 |  | 29.1 µM [falling, single point]
Cc1cccc(-c2nnc(-c3ccc(N)cc3)o2)c1 | -9.44 |  | 6.51 µM [falling, partial curve]
Cc1ccc(C)c(-n2c(-c3ccc4c(c3)OCO4)n[nH]c2=S)c1 | -18.2 |  | 0.731 µM [falling, single point]
